Test results as given in publication PMC5015018.
For at least one entry, the source does not settle the construct or the ends of the probe. Weaker means in comparison with the reference protein, sequence or condition of that experiment. For some of these results: Protein sequences can lack the tags named with them.

Legend:
[1] = target: RsrR holo, oxidised [2Fe-2S]2+ (Streptomyces venezuelae) (UniProt F2RGC9); test: EMSA; settings: EMSA on ice, 10 mM Tris, 60 mM KCl, pH 7.52, 20 ul, 3.5-4 nM DNA, 5% PAGE in 1x TBE, reduced form with 5 mM sodium dithionite in protein and running buffer, recombinant protein, protein details: His (pGS-21a, RsrR-His)
[2] = target: T1, RsrR holo, reduced [2Fe-2S]1+ (Streptomyces venezuelae) (UniProt F2RGC9); test: EMSA; settings: reduced [2Fe-2S]1+, 5 mM dithionite, partial re-oxidation not excluded; EMSA on ice, 10 mM Tris, 60 mM KCl, pH 7.52, 20 ul; 3.5-4 nM DNA; 5% PAGE in 1x TBE; reduced form with 5 mM sodium dithionite in protein and running buffer; recombinant protein; protein details: His (pGS-21a, RsrR-His); label: 5' 6-FAM; probe letters rebuilt from the primers and the genome
T1 sequence (looked up, limits assumed): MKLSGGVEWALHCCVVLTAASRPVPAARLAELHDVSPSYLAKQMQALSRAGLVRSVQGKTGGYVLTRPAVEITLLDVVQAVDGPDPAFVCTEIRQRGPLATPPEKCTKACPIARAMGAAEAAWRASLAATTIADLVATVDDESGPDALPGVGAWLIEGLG

[3] = oxidised [2Fe-2S]2+, strong, label: 6-FAM (M13 primers)
[4] = oxidised [2Fe-2S]2+, label: 6-FAM (M13 primers)
[5] = data not shown, cluster state not stated, label: 6-FAM, probe letters rebuilt from the primers and the genome
[6] = oxidised [2Fe-2S]2+, label: 5' 6-FAM, probe letters rebuilt from the primers and the genome

CTAAAACGACGGCCAGTGCAAACTCGGATACCCGATGTCCGAGATAATGTCATAGCTGTTTCCTG (double strand) [sven6562/3 Site 1-2 (class 1 site)]
binding result [1, 3]: binds

CTAAAACGACGGCCAGTGCAAACTCGGATACCCGGTCATAGCTGTTTCCTG (double strand) [sven6562/3 Site 1 (half site)]
binding result [1, 4]: binds more weakly

CAGGAAACAGCTATGACCATCACGAGATCGCCCGCCTCGTTCCGGTACAGGTCGCGAACCTTGCCCGTGTGGAGATGGGTGAGGCCCGGGACCTGGACGGGTTCGGGCTTTTCTACGAATCCGGACACGGTTCCTCCGCGTAGGTTGATCCAGGAGCGTCTCCGATTCTCTCGCACATCCGGACGGCTCCGGACGCCCGCCCCTGTGACTCCCCGCTCAGTCCCTCTTGCAGATGCGGTCGAGGAGGTTCGCGGTGGCCCGCTGGATCCGGGCGTCGACATGGCCGGGCCGGTCGAGCGCCGGGGACCAGGCGAAAGTGCCGGAGGCGAAGACCCAGGCACCCGAAGGCGCCCGGTAGAGGCTCGTCTCCTGGTGCCGGGCCGCCCCGGCGGCATCGCGGTACGGCGAGTGGGCGAGACTGGCCGTCGTTTTAG (double strand) [sven3827 probe]
binding result [1, 5]: binds

CAGGAAACAGCTATGACCCGTCCGGCGCCCCGGGTGGCCCCGGCGACCAGGCAGATCCGTCCGCGCAGGCTGTTCGTGTCCTTCTTCTCCGTCGTCATGCGCACCAGCGTGACAGGGAAATCAGACATCTTCTGTCTGGTTTCATTTCGGGCTTTCCGGGTGCGTCGCACCCCCCGAACCAGGATGCTGGTCCCGTGATGGACGAGACGGAGTTCTGGGAGATCATCGACGCCAGCCGCGAGGAAGCCGAGGGCGACCCCGAGGAACAGGCCGACCTGCTCGTGGAGCGGCTGACCCGGCTGGACCCCGACTCCGTGCTCGACTACGCCCGCCATTTCGAGGCCCGCTACAACCGCGCGTACCTCTGGGATCTGTGGGGCGCGGCGGCCGTGCTGTTCGACGGGGCGGGCGAGGAGAACTGGCCGTCGTTTTAG (double strand) [sven1847/8 intergenic probe]
binding result ([1]; oxidised [2Fe-2S]2+, aerobic, label: 5' 6-FAM, probe letters rebuilt from the primers and the genome): binds | binding result [2]: binds more weakly

CAGGAAACAGCTATGACAACAGGGAGAGCTGGTCGACCATCCCGTTGAACACCAGGGAGATCTCGCCCATGAGGCCGTCCGCCTCGTCGGGCAGCCGGGTGCCGAAATCACCGTCCCGCACCGCCGTGAGGCCTGCCAGGAGCTGTCGCAGCTCGGGCTCGCCCACCGCGGCCGGCCCGGGCCGCACCCGGACAGAGGAGCCTTCGGTCGTCATGTCAGACATGCCCCATCCTCGTTCCCCAACACGCTGCCGCTTACGGACCGTTCGGACCCGGTCACCAACTGGCCGTCGTTTTAG (double strand) [sven0372 probe]
binding result [1, 5]: binds

CTAAAACGACGGCCAGTCCCAGCTACGAGGTGGCGAAGCAGGCCGCCGAGAAGGCCGGCCTCACGCTCCACGAGGAGTTCGACGGCGAGTTCGCCGCCAAGGTGACCACCGGCCCGTACGAGTGGACCCGGATGGCCGGTATCCAGATCGGCGGCCCCTCCAACAGCTGAGGCAACAACCTCGCGCGGGGCTCACCCGTTAGGACGTGTGGAGACGCGACACGTCCACACAGGGAGCCCCCCGAGATGATCGACACGCCGAACCTGGTGGACCAGTACTGCCACGGGGTGCTCCGCACGGAACTCGGCCTCGGCACCTTCGAGGCCCACCTCGGCGCCCAGCTCGGCGGGAGCTCCGCGCTGCCCGCCGCGGGCACCACCTTCTTCGACACCCAGACCGTCATAGCTGTTTCCTG (double strand) [sven1561 probe]
binding result [1, 5]: binds

CAGGAAACAGCTATGACGCGGGGCGCCGTCGTCTTCTGCTGCTCCGGGTACTGCTCGGTCAGCCGCTTCTTGAACATGGCCTTGAAGGTCACGCCGAATCCGGCCACCGGATTCTGGAAATCAGACACCGTCCGTCTCCTTTCCATCACTCGCAGTAGCAGTATCGGAGGCGCCACTGACAACGAGGTCCCGGTCCTGCCGTGACCTGCGCCGGGGCACGGGCGGCAGGGACTGTCCGGGCTTGGGCGGTACGGGGAAGCCCCCGGCCATCGGGTCGAAGGAGGGCTCGTCGGCGGGCCGGGGCGCGGCCGCCTTCGCCCTGCGGTCGCGGAACAGGTCGACCACGAAGGACAGCAGCAGCAGTCCGAGGACGGCTCCGGCGACGTACAGGACGATGTTGCCGAAGGCGATGTTCTCACTGGCCGTCGTTTTAG (double strand) [sven4273 probe]
binding result [1, 5]: binds

CTAAAACGACGGCCAGTCCGATGTCCGAGATAATGTCATAGCTGTTTCCTG (double strand) [sven6562/3 Site 2 (half site)]
binding result [1, 4]: binds more weakly

CTAAAACGACGGCCAGTTAATACTCGGATAGTCTGTCATAGCTGTTTCCTG (double strand) [sven6562/3 Site 3 (half site)]
binding result [1, 4]: binds more weakly

CAGGAAACAGCTATGACAGCACCAGCCGCTCGTCGAACGCGGCGGCCACCTCGACGGCGATCCGCAGGGCCCGGGCCGCGCCCGGTGACTCGTCGTATCCGAGTACGACCGACATCTCAGCGCCCCTTCCGGCCGTGGACCAGGTCGGGGTCGGCCACGCCCGGCCGCTCCGCCCAGAAGGCGGGCGACCGCAGCCGCCACACGATCATGACGAACTGGCCGTCGTTTTAG (double strand) [sven0247 probe (class 2)]
binding result [1, 6]: binds

CAGGAAACAGCTATGACAAGGTCGCGACGCACACCATGATCATGACGGCGACGAGGGCCGCCATGGGGATCTCGGAGACCAACGGTCCGAAGACGAGGCACAGCACCATCAGGAAGACGCCCGCGAGGAAGGTGGAGAGGCGGGTACGGGCCCCGGACACCTTCACGTTGATCATCGTCTACTGGCCGTCGTTTTAG (double strand) [sven0519 probe (class 2)]
binding result [1, 6]: binds

CAGGAAACAGCTATGACACCTGAATCTCGCATGACCCTCCGATGATCGGCTCGTCCCCGCACCAACCCCGTTGACGGCGATCCGATTCCCGGCAAGCGGACGCAAGACCGCATGACCCGCGGGAACACGGCTAGGGGCTGTCCGGGAAGGCCTCGGGGCCGCCCTCCGCAGGGGCGAACTCGCACCAGACGATCTTGCCGGGATGGCGCGCCCCCACGCCCCAGCGGTCGGCCAGGGCGCCGACGAGGAGCAGGCCCCTGCCCGACTCGCCGGACGGCTCCCGGACGGCCGGGGTCCCGTCGCCGCTGTCGTGGACCTCGACACGGAGCGGGCCGGGCCGCTCCAGGTACAGGTGGAGGCGGTAGCCGCGGCCGGGCGGGACGCCGTGCCGGAGGGCGTTGGTGGCGAGTTCGCTCACGCACACCAGTACGTCGTCCGCACGCGCGTCCAGACCCCAGTCGGCGAGCGCCTTGCGGGCGAAGTCGCGGGCGAGGGGTACGGACCGGCGTTCGCGGCGGTAGAAGGCCTCGCGGAACAGGGGGAGTTCGTCGCTCATGACGCTCACGGTGGCCTGCGGCGGCCCACCCGCCCCAGGGCATCGAGCCGTACAAATTCTTTGTACGGGTCCGGAACGCGACTGGCCGTCGTTTTAG (double strand) [sven5174 probe]
binding result [1, 5]: binds

CAGGAAACAGCTATGACCGTGCAGCTCAGCGAGCCGGGCCGCCGGCACCGGCCTGCTCGCCGCCGTCAGGACCACACAGCAGTGGAGCGCCCACTCGACGCCACCGGACAGTTTCATGTCGCCTCCCCATTTGACTCGGACACAGACTATCCGAGTATTATCTCGGACATCGGGTATCCGAGTTTGCGTCCCCTGGGCCCCGGCCCACGAAGGAAGGCACACCATGAAGATCACCGTCATCGGCGGCACCGGCCTGATCGGCTCCCAGCTCGTCACCACGCTCCGGAACGCCGGCCACGACGTGGTCGCCGCGTCCCTCTCCTCGGGGGTCGACCTGCTCACCGGCGCCGGCCTGGACGACGCCCTCGCGGGCGCCCACACGGTCGTCAATGTCAGCAACTCCCCGACCTTCGACGAACTGGCCGTCGTTTTAG (double strand) [sven6563 probe]
binding result [1, 5]: binds

CTAAAACGACGGCCAGTTAATACTCGGATAGTCTGTGTCCGAGTCAAAGTCATAGCTGTTTCCTG (double strand) [sven6562/3 Site 3-4 (class 1 site)]
binding result [1, 3]: binds

CTAAAACGACGGCCAGTTCTGTGTCCGAGTCAAAGTCATAGCTGTTTCCTG (double strand) [sven6562/3 Site 4 (half site)]
binding result [1, 4]: binds more weakly
